System: LNCaP cells, controls (C1-C3)
Experiment: cells
Details: Homo sapiens, read-out: aggregate IC50, growth inhibition
Procedure: Cells were re-seeded into 150 cm^2 dishes supplemented with the appropriate treatments once each week. Media and compound was replaced for dish 4 once every week. Once resistant clones emerged, media was aspirated from dish 4. […] Cells from control dishes 1-3 were maintained until resistant clones were cryopreserved to maintain a constant culture time for control and experimental lines.
1000 cells (spontaneous resistant or engineered lines) were seeded in media supplemented with 10% FCS. For spontaneous resistant clones, increasing concentrations of compounds were added on the day of seeding whereas for engineered lines, compounds were added after 2 d of doxycycline treatment. In all cases growth assays were performed using CellTiter-Glo Luminescent Cell Viability Assay Reagent (Promega, cat# G7573) 7 d following compound treatment.

CNC(=O)c1ccc(N2C(=S)N(c3ccc(C#N)c(C(F)(F)F)c3)C(=O)C2(C)C)cc1F [MDV3100, 4-{3-[4-cyano-3-(trifluoromethyl)phenyl]-5,5-dimethyl-4-oxo-2-sulfanylideneimidazolidin-1-yl}-2-fluoro-N-methylbenzamide]
IC50: 200 nM

From patent publication US10011874B2, “Androgen receptor mutation” (NOVARTIS AG, priority 2013, dated 2018)
